Measurements as given in article PMC5584254, “Identification of novel small molecule Beclin 1 mimetics activating autophagy” (Oncotarget, 2017).

Sequences of proteins named here, by UniProt entry; tags and fusion partners are left off.
UniProt Q07817, whole entry: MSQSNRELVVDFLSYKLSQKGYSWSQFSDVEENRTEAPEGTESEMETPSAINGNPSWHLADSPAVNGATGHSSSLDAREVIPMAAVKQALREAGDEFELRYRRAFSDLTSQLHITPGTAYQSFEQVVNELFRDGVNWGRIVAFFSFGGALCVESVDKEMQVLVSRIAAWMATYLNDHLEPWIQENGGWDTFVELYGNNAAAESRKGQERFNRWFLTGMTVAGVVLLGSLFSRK

Legend:
[1] = biological target: T1, Bcl-xL-Beclin 1 complex (Homo sapiens, UniProt Q07817); test: Concentration response FP reconfirmation of HTS hits; assay type: binding
T1 construct: made in house
Method: (§1) Then the plates were read by Envision (Perkin Elmer, Waltham, MA). […] The hits were selected from library stocks and reconfirmed in a concentration response FP assay (6 doses ranging from 5 μM to 160 μM or 8 doses ranging from 0.5 μM to 60 μM).

[2] = biological target: T1, Bcl-xL-Beclin 1 complex; test: FP-based high-throughput screening, primary screen; assay type: binding
From the text: Next, we optimized the FP competitive binding assay in a 384-well microplate format and carried out a small-scale HTS using a small library, which contains 6580 compounds from Prestwick, Microsource and our in-house CMLD library. Then, the FP assay was optimized and applied in screening the larger Chembridge library consisting of 43736 compounds. HTS cascades are shown in Supplementary Figure 1A–1B. […] All chemical structures can be found on the PubChem website (http://pubchem.ncbi.nlm.nih.gov/).
as §1

CC(C)(C)CC(C)(C)c1ccc(OCCOCC[N+](C)(C)Cc2ccccc2)cc1 [Compound A07, BENZETHONIUM CHLORIDE]
inhibition at 5 µM ([1]; read-out: Dose-response (% Inhibition) 5 μM): -3.1%
inhibition at 10 µM ([1]; read-out: Dose-response (% Inhibition) 10 μM): -0.1%
inhibition at 20 µM ([1]; read-out: Dose-response (% Inhibition) 20 μM): 2.1%
inhibition at 40 µM ([1]; read-out: Dose-response (% Inhibition) 40 μM): 3.4%
inhibition at 80 µM ([1]; read-out: Dose-response (% Inhibition) 80 μM): 6.4%
inhibition at 160 µM ([1]; read-out: Dose-response (% Inhibition) 160 μM): 13.7%
Primary Screen mP ([2]; first screen, 40 μM compound, 2.5 μM Bcl-xL, 400 nM 20-mer): 120.2 mP
inhibition at 40 µM ([2]; read-out: Primary Screen % Inhibition): 9.66%
